For orientation: AC50 means the midpoint of the concentration-response curve, whichever way the signal moves. A lower AC50 goes with activity at low concentration.

Consider 37 compounds from PubChem BioAssay AID2685 (National Center for Advancing Translational Sciences (NCATS), 2010).

SMILES strings stand for the structures. Some of the results follow. These are further read-outs of the screen, such as a control signal, another cell line or another target. No call is given for them. The list favours compounds with an active or inconclusive main result. The note in brackets gives the kind of curve behind each potency; many fits are weak.

The assay is described as follows: qHTS Assay for Lipid Storage Modulators in Drosophila S3 Cells.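 For cell number change: cells counted by Cell Tracker Red CMTPX staining in the red channel.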 The following applies: BODIPY lipid droplet fluorescence, 18-24 h; for cell number change: measured here: cell count max response, cells fed with added oleic acid. The procedure, abridged:
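Drosophila S3 cells loaded with oleic acid (400 uM, as added) and compounds at several concentrations; lipid droplets imaged by 488-nm laser-scanning cytometry, 500–530 nm intensity and object ratio to cell channel. Percent activity normalized to 20 uM Triacsin C.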
(qHTS replaces the single test concentration by a dilution series.)

The mark [1] stands for this setting: measured here: lipid fluorescence (Fed channel) AC50, cells fed with added oleic acid.
Where [2] appears, read: measured here: cell number channel AC50, cells fed with added oleic acid.

For `Cc1ccc[n+](C(C)C(=O)Nc2ccc(C)c([N+](=O)[O-])c2)c1` (configuration not stated), the cell number change came to 0.245%. Under setting [1], the AC50 was 4.11 µM [falling, full curve, poor fit].

`Cc1cccc(N(C(=O)c2csnn2)C(C(=O)NCc2ccccc2)c2cccs2)c1` (configuration not stated): the cell number change is 21.2%. The AC50 under setting [2] was 0.461 µM [rising, partial curve, poor fit].

In the case of `CCOc1ccc(CCNC(=O)COC(=O)/C=C/c2cccc(OC)c2)cc1OCC`, the cell number change is -74.5%. The AC50 under setting [2] is 10.3 µM [falling, partial curve]. Moreover, the AC50 under setting [1] is 0.461 µM [falling, full curve].

For the compound `COc1ccc(NC(=O)CN(c2ccc(C)cc2)S(C)(=O)=O)c(OC)c1`, the cell number change was -11.6%. The AC50 under setting [1] was 0.0326 µM [falling, full curve, poor fit].

Regarding `CC1CCCCN1CC(=O)NC(=O)NCc1ccccc1` (configuration not stated), the cell number change was -58%. Besides, the AC50 under setting [2] was 16.4 µM [falling, single point]. For the same compound, the AC50 under setting [1] is 29.1 µM [falling, single point].

Regarding `COCCNC(=S)N/N=C(\C)c1ccc(C)c([N+](=O)[O-])c1`, the cell number change came out at 11.4%. Under setting [1], the AC50 was 29.1 µM [rising, single point].

In the case of `Cc1cccc2sc(NC(=O)Cn3c(C)csc3=O)nc12`, the cell number change turned out to be 186%. Besides, under setting [2], the AC50 was 23.1 µM [rising, single point].

`Cc1ccc2c(c1)[C@H]1[C@H](CO2)[C@H](c2ccccc2)[C@]2(C)C(=O)N(Cc3ccc(Cl)cc3)CC(=O)N12`: the cell number change was determined as 2.46%. Moreover, the AC50 under setting [1] was 0.0058 µM [rising, full curve, poor fit].

As to `O=C(Cc1ccccc1)NCc1ccncc1`, the cell number change was 7.86%.

In the case of `COC(=O)C(Cc1ccccc1)NC(=O)c1cc(=O)[nH]c2ccccc12` (configuration not stated), the cell number change was -1.85%. Further, the AC50 under setting [2] was 0.116 µM [rising, single point].

Take `CCOC(=O)c1c[nH]c2nc(C)ccc2c1=O`: the cell number change was -3.18%.

For the compound `O=C(COc1ccc(F)cc1Cl)Nc1ccc(S(=O)(=O)Nc2nccs2)cc1`, the cell number change was found to be 48%. In addition, the AC50 under setting [2] is 11.6 µM [rising, partial curve]. Moreover, under setting [1], the AC50 is 6.51 µM [rising, single point].

With `COCCN1Cc2c(sc(C)c2C)N(C(=O)c2ccccc2)C1`, the cell number change was found to be 37.9%. Besides, under setting [2], the AC50 was 16.4 µM [rising, partial curve]. Besides, under setting [1], the AC50 was 23.1 µM [rising, single point].

Take `C#CC(CC)(CC)NC(=O)/C=C/C(=O)O`: the cell number change was -57.1%. Under setting [2], the AC50 was 29.1 µM [falling, single point]. In addition, the AC50 under setting [1] was 29.1 µM [falling, single point].

With `COc1ccc(CNCC2COc3ccccc3O2)cc1` (configuration not stated), the cell number change was 17.7%. Besides, the AC50 under setting [1] is 29.1 µM [falling, single point].

Take `CCc1cccc(OC2OC(CO)C(O)C(O)C2NC(C)=O)c1` (configuration not stated): the cell number change was -46.8%. Besides, the AC50 under setting [2] was 5.17 µM [falling, full curve, poor fit]. Further, the AC50 under setting [1] was 1.16 µM [falling, full curve].

With `Cc1ccc(C(=O)N(Cc2nc(-c3ccc(C)cc3)no2)C(C)C)cc1`, the cell number change is -5.01%. The AC50 under setting [1] was 0.164 µM [falling, full curve, poor fit].

Consider `NS(=O)(=O)c1ccc(CCNC(=O)C2CCCCC2)cc1`, for which the cell number change was -8.28%. Besides, the AC50 under setting [2] is 6.51 µM [falling, single point]. Also, the AC50 under setting [1] is 3.26 µM [falling, full curve].

With `CCN(CC)C(=O)C1CCCN(C(=O)c2cc(COc3ccc4ncccc4c3)on2)C1` (configuration not stated), the cell number change is -25.8%. For the same compound, under setting [1], the AC50 was 6.51 µM [rising, single point].

Consider `CCOC(=O)c1c(/N=C/C2C(=O)CCCC2=O)sc(C)c1C`, for which the cell number change amounted to 10.5%. Under setting [1], the AC50 is 25.9 µM [rising, single point].

As to `CCn1c(SCC(=O)Nc2ccc(Br)cn2)nnc1C1CC1`, the cell number change was 1.9%. In addition, the AC50 under setting [1] was 1.64 µM [rising, partial curve, poor fit].

Take `CC(C(=O)NC1CCCC1)N1CCN(S(=O)(=O)c2ccc(C(C)(C)C)cc2)CC1` (configuration not stated): the cell number change stood at 6.55%. In addition, the AC50 under setting [1] was 4.61 µM [rising, partial curve].

As for `O=C(CCSc1nc(-c2ccco2)cc(C(F)(F)F)n1)N1CCN(c2ccccc2)CC1`, the cell number change worked out at 121%. Besides, the half-maximal activity concentration (AC50) under setting [2] was 9.2 µM [rising, partial curve]. The AC50 under setting [1] was 11.6 µM [rising, partial curve].

Take `Cc1ccc[n+](CC(=O)c2ccc(Br)cc2)c1`: the AC50 under setting [1] is 6.51 µM [falling, single point].

Consider `CCOC(=O)c1nc(NCc2cccnc2)c2ccccc2n1`, for which the cell number change was found to be 16%. Moreover, the AC50 under setting [2] was 1.84 µM [rising, single point]. The AC50 under setting [1] was 4.11 µM [rising, single point].

As for `COC(=O)C1CCN(C(=O)c2cc(-c3ccc(Cl)s3)nc3ccccc23)CC1`, the cell number change was -32.6%. Moreover, under setting [2], the AC50 was 0.00461 µM [falling, full curve, poor fit]. For the same compound, the AC50 under setting [1] was 7.31 µM [falling, partial curve].

Consider `CC(=O)Oc1ccc(/C=N/NC(=O)c2ccc(N(C)S(=O)(=O)c3ccccc3)cc2)cc1`, for which the cell number change was -15.8%.

Take `CC(C)CN1C(Nc2ccccc2)=NC[C@@H]1C`: the cell number change turned out to be 26.6%. Moreover, under setting [1], the AC50 is 6.51 µM [rising, single point].

In the case of `On1c(-c2ccc(Cl)cc2)nc2ccccc21`, the cell number change is -28.2%. The AC50 under setting [1] is 0.13 µM [rising, full curve, poor fit].

As to `Nc1c(Cl)c(Cl)nc(C(=O)OCC(=O)NCc2ccccc2)c1Cl`, the cell number change was -28.2%. Further, the AC50 under setting [1] is 3.26 µM [falling, partial curve, poor fit].

With `CC1(C)OC(c2ccccc2)=C/C(=C/C=N/NC(=O)c2ccncc2)O1`, the cell number change was -8.37%.

Take `COCc1ccc(C(=O)NC2CC(C)(C)Cc3c2cnn3-c2ccc(OC)cc2)o1` (configuration not stated): the cell number change is -14.7%. Also, the AC50 under setting [1] is 29.1 µM [rising, single point].

With `Cn1cc(CN2CCN(Cc3ccc4c(c3)OCO4)CC2)c(-c2ccccc2F)n1`, the cell number change was 16.6%. The AC50 under setting [1] is 0.13 µM [rising, partial curve, poor fit].

Regarding `CC(C)(CCO)Nc1ncnc2onc(-c3ccc(F)cc3)c12`, the cell number change is 21.1%.

`Cc1[nH]c2ccc(C(C)C)cc2c1CC(=O)O`: the cell number change is -16%. For the same compound, the AC50 under setting [1] is 18.4 µM [falling, single point].

In the case of `COc1ccc(OC)c(S(=O)(=O)N/N=C(/C)c2ccc3c(c2)OCO3)c1`, the cell number change is -19.8%. The AC50 under setting [1] is 8.2 µM [rising, partial curve].

Take `CC(=O)Nc1cccc(NC(=O)CSc2nc3c(c(=O)n(C)c(=O)n3C)n2C)c1`: the cell number change is -5.13%.
